Reference: the supplement of paper PMC10849652
The list shows a part of the results. Residues, ends and D or L forms follow the SMILES beside them. *: point of attachment. Cbz = O=C(OCc1ccccc1)*

By UniProt entry, the sequences of proteins in these tests, tags left out. Where a name states a change or a piece, a line headed by the entry shows the natural chain unless it says otherwise.
UniProt O94817, whole entry, looked up: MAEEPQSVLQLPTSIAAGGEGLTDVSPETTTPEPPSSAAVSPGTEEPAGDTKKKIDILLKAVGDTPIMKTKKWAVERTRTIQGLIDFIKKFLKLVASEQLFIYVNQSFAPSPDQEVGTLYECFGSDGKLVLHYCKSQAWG
UniProt Q9Y6H3: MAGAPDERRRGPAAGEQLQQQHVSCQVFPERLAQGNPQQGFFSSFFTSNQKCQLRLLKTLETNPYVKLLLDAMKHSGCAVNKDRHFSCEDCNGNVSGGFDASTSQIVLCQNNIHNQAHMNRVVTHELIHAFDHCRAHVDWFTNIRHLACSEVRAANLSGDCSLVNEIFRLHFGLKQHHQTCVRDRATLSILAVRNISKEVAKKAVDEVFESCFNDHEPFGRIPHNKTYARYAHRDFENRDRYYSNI
UniProt Q01814: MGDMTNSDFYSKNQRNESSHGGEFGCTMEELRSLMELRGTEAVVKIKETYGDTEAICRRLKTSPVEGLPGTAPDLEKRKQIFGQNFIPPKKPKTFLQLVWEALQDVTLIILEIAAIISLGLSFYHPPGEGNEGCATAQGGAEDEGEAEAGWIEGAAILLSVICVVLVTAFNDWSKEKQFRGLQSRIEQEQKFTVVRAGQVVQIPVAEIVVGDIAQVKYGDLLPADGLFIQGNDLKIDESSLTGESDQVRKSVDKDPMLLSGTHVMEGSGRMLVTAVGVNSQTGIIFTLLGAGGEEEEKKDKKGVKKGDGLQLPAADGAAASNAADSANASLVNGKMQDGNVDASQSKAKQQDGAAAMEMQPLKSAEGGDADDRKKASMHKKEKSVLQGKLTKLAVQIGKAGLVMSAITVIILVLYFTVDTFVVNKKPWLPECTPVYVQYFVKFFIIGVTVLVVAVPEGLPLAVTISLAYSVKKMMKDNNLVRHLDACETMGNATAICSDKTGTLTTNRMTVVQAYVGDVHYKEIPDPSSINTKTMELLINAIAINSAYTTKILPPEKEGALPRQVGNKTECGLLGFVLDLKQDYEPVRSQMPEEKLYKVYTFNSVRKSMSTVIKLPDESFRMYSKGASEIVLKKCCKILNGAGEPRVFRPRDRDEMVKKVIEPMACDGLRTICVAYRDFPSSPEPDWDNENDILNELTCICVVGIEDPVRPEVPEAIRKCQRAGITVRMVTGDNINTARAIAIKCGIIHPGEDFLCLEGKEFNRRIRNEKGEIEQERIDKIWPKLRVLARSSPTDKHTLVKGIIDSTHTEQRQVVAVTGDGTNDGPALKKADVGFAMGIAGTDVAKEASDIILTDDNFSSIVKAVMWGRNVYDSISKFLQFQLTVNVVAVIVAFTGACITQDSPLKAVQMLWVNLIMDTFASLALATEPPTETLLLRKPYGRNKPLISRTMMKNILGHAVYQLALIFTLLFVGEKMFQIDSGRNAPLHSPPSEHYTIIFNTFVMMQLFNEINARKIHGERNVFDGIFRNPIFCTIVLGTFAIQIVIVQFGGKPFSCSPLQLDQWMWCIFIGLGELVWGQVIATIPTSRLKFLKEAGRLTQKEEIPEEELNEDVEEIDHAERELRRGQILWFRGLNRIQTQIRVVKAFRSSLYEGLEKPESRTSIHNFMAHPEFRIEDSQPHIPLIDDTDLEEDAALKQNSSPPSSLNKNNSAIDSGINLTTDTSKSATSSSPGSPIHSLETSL
UniProt Q76L83: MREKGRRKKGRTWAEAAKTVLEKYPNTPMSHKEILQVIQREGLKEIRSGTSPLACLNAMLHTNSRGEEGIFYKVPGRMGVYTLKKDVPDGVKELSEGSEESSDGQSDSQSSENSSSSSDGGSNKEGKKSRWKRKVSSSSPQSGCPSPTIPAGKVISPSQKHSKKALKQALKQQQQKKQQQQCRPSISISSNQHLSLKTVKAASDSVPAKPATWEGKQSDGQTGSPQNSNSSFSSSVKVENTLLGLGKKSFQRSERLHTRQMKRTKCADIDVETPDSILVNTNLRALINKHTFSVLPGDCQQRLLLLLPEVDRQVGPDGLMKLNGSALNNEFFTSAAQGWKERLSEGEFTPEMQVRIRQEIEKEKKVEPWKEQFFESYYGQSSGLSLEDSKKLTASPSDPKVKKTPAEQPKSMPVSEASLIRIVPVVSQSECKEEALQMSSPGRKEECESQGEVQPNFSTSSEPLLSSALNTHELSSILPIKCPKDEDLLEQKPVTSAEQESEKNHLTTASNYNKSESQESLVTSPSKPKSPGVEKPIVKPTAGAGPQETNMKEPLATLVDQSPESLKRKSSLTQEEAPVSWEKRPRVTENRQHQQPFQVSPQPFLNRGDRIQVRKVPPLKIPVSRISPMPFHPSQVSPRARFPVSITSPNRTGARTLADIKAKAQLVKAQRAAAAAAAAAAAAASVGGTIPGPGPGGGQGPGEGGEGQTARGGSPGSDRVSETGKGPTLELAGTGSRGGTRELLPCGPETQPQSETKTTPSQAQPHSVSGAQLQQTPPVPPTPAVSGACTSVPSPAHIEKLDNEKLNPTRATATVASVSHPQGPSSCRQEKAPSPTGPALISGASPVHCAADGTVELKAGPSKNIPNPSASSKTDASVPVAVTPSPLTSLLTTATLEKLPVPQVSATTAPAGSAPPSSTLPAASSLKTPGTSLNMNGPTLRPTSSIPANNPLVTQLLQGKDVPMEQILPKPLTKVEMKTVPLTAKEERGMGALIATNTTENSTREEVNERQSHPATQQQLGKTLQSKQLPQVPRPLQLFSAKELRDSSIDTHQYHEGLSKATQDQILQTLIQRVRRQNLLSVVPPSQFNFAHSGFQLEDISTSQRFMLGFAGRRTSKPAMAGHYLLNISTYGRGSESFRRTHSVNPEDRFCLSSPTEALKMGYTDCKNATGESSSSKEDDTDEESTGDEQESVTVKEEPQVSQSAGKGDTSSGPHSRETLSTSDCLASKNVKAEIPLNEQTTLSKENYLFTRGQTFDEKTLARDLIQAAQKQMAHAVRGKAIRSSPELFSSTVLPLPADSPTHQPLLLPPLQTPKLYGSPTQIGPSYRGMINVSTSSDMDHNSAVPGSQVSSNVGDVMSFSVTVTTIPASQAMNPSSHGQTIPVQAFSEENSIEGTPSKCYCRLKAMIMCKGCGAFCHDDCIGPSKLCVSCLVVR
UniProt Q9NWX5: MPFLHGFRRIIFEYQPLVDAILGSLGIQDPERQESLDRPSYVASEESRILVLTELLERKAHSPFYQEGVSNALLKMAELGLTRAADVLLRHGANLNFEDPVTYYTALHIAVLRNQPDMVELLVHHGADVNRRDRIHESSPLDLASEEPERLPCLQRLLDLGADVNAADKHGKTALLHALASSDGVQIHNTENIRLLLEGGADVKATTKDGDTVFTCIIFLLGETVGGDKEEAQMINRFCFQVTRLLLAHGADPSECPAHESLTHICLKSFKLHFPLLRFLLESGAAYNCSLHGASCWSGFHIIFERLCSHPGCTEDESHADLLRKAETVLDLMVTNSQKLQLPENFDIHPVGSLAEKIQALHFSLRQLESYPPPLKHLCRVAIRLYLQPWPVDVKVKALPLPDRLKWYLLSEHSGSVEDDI
UniProt Q6UWY0: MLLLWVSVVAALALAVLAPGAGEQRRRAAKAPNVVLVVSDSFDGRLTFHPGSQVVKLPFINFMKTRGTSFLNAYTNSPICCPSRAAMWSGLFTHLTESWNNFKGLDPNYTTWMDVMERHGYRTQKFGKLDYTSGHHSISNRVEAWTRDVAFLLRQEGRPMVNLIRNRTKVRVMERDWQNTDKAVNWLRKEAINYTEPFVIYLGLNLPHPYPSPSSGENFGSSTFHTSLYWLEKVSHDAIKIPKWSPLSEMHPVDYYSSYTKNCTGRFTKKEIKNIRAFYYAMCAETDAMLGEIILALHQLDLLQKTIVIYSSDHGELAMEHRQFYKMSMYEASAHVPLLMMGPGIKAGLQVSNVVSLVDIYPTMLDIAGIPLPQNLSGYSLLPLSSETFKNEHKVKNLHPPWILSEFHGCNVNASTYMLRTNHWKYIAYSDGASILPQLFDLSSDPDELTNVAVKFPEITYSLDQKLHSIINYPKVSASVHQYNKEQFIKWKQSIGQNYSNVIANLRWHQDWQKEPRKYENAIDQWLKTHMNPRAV
UniProt Q8N6S5: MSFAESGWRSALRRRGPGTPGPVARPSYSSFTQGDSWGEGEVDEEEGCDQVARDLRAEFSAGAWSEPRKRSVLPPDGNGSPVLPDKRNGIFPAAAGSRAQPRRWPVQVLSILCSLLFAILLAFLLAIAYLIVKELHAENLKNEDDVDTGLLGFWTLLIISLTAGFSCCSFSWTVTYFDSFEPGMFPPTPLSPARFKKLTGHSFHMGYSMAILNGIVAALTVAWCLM

Columns and labels:
Assay in all cases: log2 fold change, soluble protein after heating vs DMSO (PISA); higher = thermal stabilisation; K562 cells, 10 uM, 30 min; active = over 0.2 and 3.5 SD of the protein, either way, in both replicates (recomputed)
erlotinib = compound: C#Cc1cccc(Nc2ncnc3cc(OCCOC)c(OCCOC)cc23)c1 [erlotinib]
Method in brief: (§1)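 K562 cells at 2×10^6 cells/mL were exposed to 10 μM compound for 30 min, then aliquots were heated for 3 min across 48°C-58°C, pooled, and extracted in PBS containing 0.5% NP-40 at 4°C. The supernatant after 21,000xg for 90 min was taken as soluble protein and measured by TMTpro 16plex LC-MS/MS with channel sums equalised. Thermal stability is reported relative to control samples, with values from duplicates. Fold changes are given on a log2 scale.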

[1] = compound: C/C(=N\NC(=O)C1=CC(=CC=C1)S(=O)(=O)N2CCOCC2)/C3=C(C=CC(=C3)Cl)O
Method in brief: as §1

[2] = compound: C1=CC(=CC=C1C2=NC3=C(N2)C=C(C=C3)C(=O)N)OC4=CC=C(C=C4)Cl
Method in brief: as §1

[3] = compound: C1=CC2=C(C=CC(=C2)/C=C\3/C(=O)NC(=NCC4=CC=CS4)S3)N=C1
Method in brief: as §1

[4] = compound: C1=CC2=NC=CN=C2C=C1/C=C/3\C(=O)NC(=O)S3
Method in brief: as §1

[5] = compound: C1=CC=C(C=C1)C2=NC(=C(N2)C3=CC=NC=C3)C4=CC(=C(C=C4)Cl)O
Method in brief: as §1

[6] = compound: C1=CC=C2C(=C1)C3=NNC4=CC=CC(=C43)C2=O
Method in brief: as §1

[7] = compound: C1CCN(C1)C(=O)NC2=CC=CC(=C2)NC3=NC=C(C(=N3)NCCC4=CN=CN4)Br
Method in brief: as §1

[8] = compound: C1CN(CCC1(CC2=CC=C(C=C2)Cl)N)C3=NC=NC4=C3C=CN4
Method in brief: as §1

IRAK-1-4 Inhibitor I = compound: C1COCCN1CCN2C3=CC=CC=C3N=C2NC(=O)C4=CC(=CC=C4)[N+](=O)[O-] [IRAK-1-4 Inhibitor I]
Method in brief: as §1

ibrutinib = compound: C=CC(=O)N1CCC[C@@H](n2nc(-c3ccc(Oc4ccccc4)cc3)c3c(N)ncnc32)C1 [ibrutinib]
Method in brief: as §1

[9] = compound: CC(=O)c1cnc2ccc(-c3cc(Cl)c(O)c(Cl)c3)nc2c1N[C@H]1CC[C@H](CN(C)C)CC1
Method in brief: as §1

ralimetinib = compound: CC(C)(C)Cn1c(N)nc2ccc(-c3[nH]c(C(C)(C)C)nc3-c3ccc(F)cc3)nc21 [ralimetinib]
Method in brief: as §1

[10] = compound: CC(C)C1=C2N=C(C=C(N2N=C1)NCC3=CC=CC=C3)NCCCCCCN
Method in brief: as §1

[11] = compound: CC(C)C[C@@H](C=O)NC(=O)[C@H](CC(C)C)NC(=O)[C@H](CC(C)C)NC(=O)OCc1ccccc1
Method in brief: as §1

pinometostat = compound: CC(C)N(C[C@H]1O[C@@H](n2cnc3c(N)ncnc32)[C@H](O)[C@@H]1O)[C@H]1C[C@@H](CCc2nc3cc(C(C)(C)C)ccc3[nH]2)C1 [pinometostat]
Method in brief: as §1

[12] = compound: CC1=C(C(CC(=O)N1)C2=CC=C(C=C2)C(F)(F)F)C(=O)NC3=C(C=C4C(=C3)C=NN4)F
Method in brief: as §1

[13] = compound: CC1=C(C2=C(C=C1)C(=O)C3=CC=CC=C3N2CCCN)C
Method in brief: as §1

[14] = compound: C1=CC(=C(C=C1Cl)C2=NC3=NC=CN=C3C(=N2)NC4=CC=NC=C4)F
Method in brief: as §1

[15] = compound: CC(C)(O)CC(=O)NCCn1ccc2ncnc(Nc3ccc(Oc4cccc(C(F)(F)F)c4)c(Cl)c3)c21
Method in brief: as §1

Row | Target | log2 fold change (erlotinib) | log2 fold change [1] | log2 fold change [2] | log2 fold change [3] | log2 fold change [4] | log2 fold change [5] | log2 fold change [6] | log2 fold change [7] | log2 fold change [8] | log2 fold change (IRAK-1-4 Inhibitor I) | log2 fold change (ibrutinib) | log2 fold change [9] | log2 fold change (ralimetinib) | log2 fold change [10] | log2 fold change [11] | log2 fold change (pinometostat) | log2 fold change [12] | log2 fold change [13] | log2 fold change [14] | log2 fold change [15]
1 | ATP1B1 (UniProt P05026) | inactive: 0.033 | inactive: 0.054 | inactive: -0.043 | inactive: -0.063 | inactive: 0.08 | inactive: 0.065 | inactive: -0.049 | inactive: -0.121 | inactive: 0.01 | inactive: 0.028 | inactive: 0.021 | inactive: -0.017 | inactive: -0.028 | inactive: 0.161 | inactive: 0.058 | inactive: 0.026 | inactive: 0.085 | inactive: 0.044 |  | 
2 | ATG12 (UniProt O94817) | inactive: -0.032 | inactive: 0.067 | inactive: 0.048 | inactive: 0.056 | inactive: 0.077 |  | inactive: 0.007 | inactive: -0.075 | inactive: 0.004 | inactive: 0.056 | inactive: 0.015 | inactive: -0.008 |  | inactive: -0.067 |  | inactive: -0.043 | inactive: 0.027 | inactive: 0.058 | inactive: 0.07 | inactive: 0.002
3 | ATP23 (UniProt Q9Y6H3) | inactive: 0.021 | inactive: -0.079 | inactive: 0.033 | inactive: 0.051 | inactive: 0.027 | inactive: 0.009 | inactive: 0.033 | inactive: 0.007 | inactive: -0.014 | inactive: 0.091 | inactive: -0.009 | inactive: -0.004 | inactive: -0.043 | inactive: -0.136 | inactive: 0.025 | inactive: -0.014 |  | inactive: -0.01 | inactive: -0.017 | inactive: 0.02
4 | ATP2B2 (UniProt Q01814) | inactive: -0.05 | inactive: 0.123 | inactive: 0.038 | inactive: -0.063 |  |  | inactive: 0.142 |  |  |  |  | inactive: -0.3 |  | inactive: 0.095 |  |  |  |  |  | 
5 | ASXL2 (UniProt Q76L83) | inactive: 0.042 | inactive: -0.016 | inactive: 0.167 | inactive: 0.024 |  |  | inactive: -0.059 |  |  |  |  | inactive: -0.059 |  | inactive: 0.11 |  |  |  |  |  | 
6 | ASB6 (UniProt Q9NWX5) | inactive: -0.024 | active: -0.603 | inactive: -0.067 | inactive: 0.184 | inactive: -0.084 | inactive: 0.101 | inactive: -0.032 |  |  | inactive: 0.106 | inactive: -0.108 | inactive: 0.039 | inactive: 0.343 | inactive: -0.055 | inactive: 0.069 | inactive: -0.031 |  |  | inactive: -0.263 | inactive: -0.274
7 | ARSK (UniProt Q6UWY0) | inactive: 0.26 |  | inactive: 0.208 |  | inactive: -0.086 |  |  |  |  | inactive: 0.027 | inactive: -0.066 |  |  | inactive: -0.119 |  | inactive: -0.04 | inactive: -0.105 |  | inactive: 0.13 | inactive: -0.102
8 | ARL6IP6 (UniProt Q8N6S5) | inactive: 0.064 | inactive: 0.116 | inactive: 0.034 | inactive: -0.006 | inactive: 0.001 | inactive: 0.201 | inactive: -0.087 | inactive: 0.01 | inactive: -0.036 | inactive: 0.12 | inactive: 0.056 | inactive: 0.168 | active: 0.413 | inactive: -0.049 | inactive: -0.199 | inactive: 0.069 |  | inactive: 0.02 | inactive: -0.102 | inactive: 0

Part of the list above, reduced to log2 fold change (ralimetinib), log2 fold change [1] and log2 fold change [9]:

| Row | Target | log2 fold change (ralimetinib) | log2 fold change [1] | log2 fold change [9] |
| --- | --- | --- | --- | --- |
| 1 | ATP1B1 (UniProt P05026) | inactive: -0.028 | inactive: 0.054 | inactive: -0.017 |
| 2 | ATG12 (UniProt O94817) |  | inactive: 0.067 | inactive: -0.008 |
